For series [1], the target named is T1, F-HA-Zic2 (UniProt Q62520).
T1 sequence (looked up, limits assumed): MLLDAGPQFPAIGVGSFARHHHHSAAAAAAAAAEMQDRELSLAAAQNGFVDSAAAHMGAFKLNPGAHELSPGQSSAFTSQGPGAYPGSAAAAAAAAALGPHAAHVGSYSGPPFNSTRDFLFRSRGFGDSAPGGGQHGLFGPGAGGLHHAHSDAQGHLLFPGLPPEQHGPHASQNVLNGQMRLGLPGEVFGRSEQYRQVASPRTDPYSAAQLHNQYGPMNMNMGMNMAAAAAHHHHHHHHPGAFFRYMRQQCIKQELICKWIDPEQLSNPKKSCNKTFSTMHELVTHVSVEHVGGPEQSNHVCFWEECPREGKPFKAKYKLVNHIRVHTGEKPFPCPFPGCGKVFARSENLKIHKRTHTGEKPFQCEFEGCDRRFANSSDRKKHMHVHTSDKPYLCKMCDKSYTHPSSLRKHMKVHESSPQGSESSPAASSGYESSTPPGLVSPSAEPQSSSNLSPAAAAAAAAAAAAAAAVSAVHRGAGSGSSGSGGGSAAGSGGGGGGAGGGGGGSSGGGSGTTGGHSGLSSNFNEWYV
Briefly: EMSA. As to conditions: recombinant protein, protein details: N-terminal FLAG-HA. On the technique in general: Mobility shift assays separate free from complexed probe on a gel.

The target in another series is T2, GLI3-ZF-CH6 (GLI3 ZFD) (UniProt P10071).
T2 sequence (looked up, limits assumed): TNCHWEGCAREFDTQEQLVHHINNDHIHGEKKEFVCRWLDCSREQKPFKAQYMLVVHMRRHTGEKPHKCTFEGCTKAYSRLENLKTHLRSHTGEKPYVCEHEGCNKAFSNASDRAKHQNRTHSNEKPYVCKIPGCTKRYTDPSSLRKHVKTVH
The series is described as follows: EMSA. As to conditions: GBS preferred, section heading says ZBS not recognized by GLI; recombinant protein; label: 5' IRD700 or IRD800 both strands.

For series [2], the target named is T1, F-HA-Zic2. The series is described as follows: competition with a labelled probe. The following applies: against N1, shifted bands partially disappear; recombinant protein; protein details: N-terminal FLAG-HA; letters put together from the description.

These results are taken from publication PMC5794963, “Link between the causative genes of holoprosencephaly: Zic2 directly regulates Tgif1 expression”.

For at least one entry, the source does not settle the construct or the ends of the probe. The comparison behind a weaker result is the experiment's own reference, which may not be listed here. For some assays here: At least one verdict rests on a figure or table, not on a statement of the authors. Tags and fusion partners may be left off the protein sequences shown.

“CACCGGGGCGCAGCAGCTGAGTCATCCCCTGCCGGGTCCCGGAAAGCGCTGCGCCAGGGC (double strand) [Tgif1 -1709 to -1649 probe]”: in the series with F-HA-Zic2 [1] (weak binding site, label: 5' IRD700 on reverse strand, letters put together from the description), the binding result is “binds more weakly”.
As to “CCAGCTCCTCCTCCCCGAGTCTGTTCTCCCTCCTCTCCCGAGTCCCCGGCGGATGTGAGCCACCAATCCCAGCCACAAACACCAAAAACCCAGAGC (double strand) [Tgif1 -1866 to -1760 probe]”, the binding result with F-HA-Zic2 [1] (weak binding site, label: 5' IRD700 on forward strand, letters put together from the description) was “binds more weakly”.
Regarding “CCAGCTCCTCCTCCCCGAGTCTGTTCTCCCTCCTCTCCCGAGTCCCCGGCGGATGTGAGCCACCAATCCCAGCCACAAACACCAAAAACCCAGAGCGAGGCGGCCCTCAACCGGCGGCTGGGCCCTCCGTGGCCCCCTCCCGCACCACATGAGTCCCGCACCGGGGCGCAGCAGCTGAGTCATCCCCTGCCGGGTCCCGGAAAGCGCTGCGCCAGGGC (double strand) [Tgif1 -1866 to -1649 probe]”, the binding result in the series with F-HA-Zic2 [1] (three shifted bands, label: 5' IRD700 both strands) was “binds”.
Take “CCCGCACCACATGAGTCCCG / CGGGACTCATGTGGTGCGCC [ZBS core probe (-1728 to -1709)]”: in the series with GLI3-ZF-CH6 (GLI3 ZFD), the binding result is listed as “binds more weakly”.
In the case of “GTGGCCCCCTCCCGCACCAC (double strand) [cp3 (-1738 to -1719)]”, the binding result with F-HA-Zic2 [2] is listed as “binds more weakly”.
